Results reported in PubChem BioAssay AID493014 (National Center for Advancing Translational Sciences (NCATS), 2011).
This is one part of the list. Shown are side measurements of this screen, not its main read-out; they come without a call. The list favours compounds with an active or inconclusive main result. The note in brackets gives the kind of curve behind each potency; many fits are weak.

Test: qHTS Assay to Find Inhibitors of Chronic Active B-Cell Receptor Signaling
Details: ABC-DLBCL IkBa-CBG/CBR reporter, luminescence ratio (green luciferase fused to IkBa over red control in TMD8 lymphoma cells), 4 h
In short: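 Compounds up to 46 uM were incubated four hours with TMD8 cells whose green CBG68 luciferase is fused to IkappaBalpha; red CBR luminescence normalised the signal, and concentration-effect curves were fitted to fusion, red and ratio data.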

[1] = measured here: CBR red luminescence, cell number
[2] = measured here: IkBa-CBG green luminescence

SMILES	AC50 [1]	AC50 [2]
Cc1ccc(NC(=O)CN(C)CC(=O)Nc2ccccc2-c2ccccc2)cc1	35.5 µM [falling, single point]	–
CN1CCCC(CN2c3ccccc3Sc3ccccc32)C1 (configuration not stated)	10 µM [falling, partial curve]	–
O=C(Cn1cc(C(F)(F)F)ccc1=O)N/N=C/c1ccccc1	2.24 µM [rising, partial curve, poor fit]	–
Cc1cccc(-n2nc3c(c2NC(=O)CCCl)CSC3)c1	5.62 µM [rising, single point]	–
CCCN1C(=O)c2cc(C(=O)NCCc3cccc(C)c3)ccc2C1O (configuration not stated)	0.103 µM [rising, full curve, poor fit]	–
O=C(NN=C1CCCC1)c1ccccc1OCc1ccc(Cl)cc1	25.1 µM [falling, single point]	–
O=C(Nc1ccc(Br)cc1)c1ccc(F)c(S(=O)(=O)N2CCc3ccccc32)c1	0.562 µM [falling, partial curve, poor fit]	–
CCOC(=O)CSc1nc2sc3c(c2c(=O)n1-c1ccc(OCC)cc1)CCN(C)C3	0.112 µM [falling, full curve, poor fit]	–
O=c1c2cnn(-c3ccccc3)c2ncn1Cc1ccccc1F	3.26 µM [falling, partial curve, poor fit]	–
CCNc1ccc(C(=O)OCC(=O)NC(C)c2ccccc2)cc1[N+](=O)[O-] (configuration not stated)	16.4 µM [rising, single point]	–
COCCOc1ccc(C(F)(F)F)cc1NC(=O)COC(=O)Cc1c[nH]c2ccccc12	1.16 µM [falling, partial curve, poor fit]	–
CCOc1ccccc1NC(=O)N1CCC(NC(=O)c2cccc(C)c2)CC1	15.8 µM [falling, partial curve, poor fit]	–
Cc1nc(C(=O)NNC(=O)c2ccc(Cl)cc2)cs1	35.5 µM [falling, single point]	–
COc1ccccc1CN1Cc2cccc3c2[C@@H](CC1=O)[C@H](O)[C@H](O)C3	32.6 µM [rising, single point]	–
O=C(/C(=C/O)N=Nc1ccccc1)c1cccs1	10 µM [rising, partial curve, poor fit]	15.8 µM [falling, single point]
Cn1cccc1C(=O)C(=O)Nc1ccc(Cl)cc1	10 µM [falling, partial curve, poor fit]	–
CCNc1nc2c(c(=O)n(Cc3ccccc3)c(=O)n2C)n1Cc1ccccc1	35.5 µM [falling, single point]	–
CCOC(=O)/C(C#N)=C1\SS/C(=C(/C#N)C(=O)OCC)S1	35.5 µM [falling, single point]	–
O=C(O)CCCCCN1C(=O)/C(=C\c2ccc(-c3ccc(Cl)cc3)o2)SC1=S	0.1 µM [falling, full curve, poor fit]	–
Cn1c(=O)[nH]c(=O)c2c1nc(SCC(=O)Nc1ccccc1)n2Cc1ccccc1	23.1 µM [falling, partial curve]	–
COc1ccccc1N=Cc1c(O)c2ccccc2oc1=O	4.11 µM [falling, full curve, poor fit]	–

SMILES	AC50 [1]	AC50 [2]
N#Cc1ccc(OCc2noc(-c3ccsc3)n2)cc1	10 µM [rising, partial curve, poor fit]	–
COc1ccc(-n2nc(C(=O)NCC(=O)N3CCC(C)CC3)c3ccccc3c2=O)cc1Cl	28.2 µM [falling, single point]	–
Cc1nc(Nc2ccccc2F)c2oc3ccccc3c2n1	2.82 µM [falling, full curve]	–
COc1ccccc1C1C([N+](=O)[O-])=CC([N+](=O)[O-])=CN1C (configuration not stated)	23.1 µM [falling, single point]	–
S=c1[nH]nc(-c2ccco2)n1-c1ccccc1Cl	0.562 µM [rising, partial curve, poor fit]	–
CC(C)CCN(C(=O)Nc1ccccc1)C(C)c1cccs1 (configuration not stated)	6.51 µM [falling, single point]	–
Cc1cccc(OCCCc2c(C)n[nH]c2C)c1	35.5 µM [falling, single point]	–
[O-][n+]1ccccc1SC/C=C/c1ccccc1	17.8 µM [rising, partial curve, poor fit]	–
NC(=S)N/N=C/c1cn(-c2ccccc2)nc1-c1cccnc1	6.31 µM [falling, full curve, poor fit]	–
CCOC(=O)C1CCN(C(=O)/C=C/c2cccs2)CC1	31.6 µM [falling, single point]	–
O=C(Nn1c(C2CCCCC2)nc2ccccc2c1=O)c1ccc([N+](=O)[O-])cc1	3.26 µM [rising, partial curve, poor fit]	–
CCn1c2ccccc2c2cc(/C=N/NC(=O)c3ccccc3C)ccc21	4.61 µM [falling, partial curve]	–
O=C(CCCN1C(=O)S/C(=C\c2ccccc2)C1=O)NNC(=O)c1ccccc1O	0.708 µM [falling, full curve, poor fit]	–
Cc1cccc(N=Nc2c(C)[nH]n(C(N)=S)c2=O)c1C	0.447 µM [rising, partial curve, poor fit]	–
COc1cc(/C=N/Nc2ccc(C(=O)O)cc2)cc(OC)c1OC	0.2 µM [falling, full curve]	–
Cc1cccc(Cc2cnc(N3C(=N)SC(C)C3=O)s2)c1 (configuration not stated)	28.2 µM [rising, single point]	22.4 µM [falling, single point]
O=C(N/N=C/c1ccc2cccnc2c1)c1nc2ccccc2c(=O)[nH]1	1.12 µM [rising, partial curve, poor fit]	–
C=CCOc1c(OC)cc(/C=N/Nc2cccc(C(=O)O)c2)c(Br)c1Br	0.92 µM [rising, full curve, poor fit]	0.326 µM [falling, full curve, poor fit]
Cc1csc(CNc2ncnc3ccc(-c4cccnc4)cc23)c1	4.61 µM [rising, partial curve, poor fit]	–
CCCc1cc(=O)[nH]c(SCC(=O)N(C)CC(=O)Nc2ccc(C)cc2)n1	35.5 µM [rising, single point]	–
COCCn1cc(C(=O)NCCCOC(C)C)c2c3ccccc3n(C)c2c1=O	11.2 µM [rising, partial curve]	–

In a second layout: entries from further up

| SMILES | AC50 [1] | AC50 [2] |
| --- | --- | --- |
| O=C(Nn1c(C2CCCCC2)nc2ccccc2c1=O)c1ccc([N+](=O)[O-])cc1 | 3.26 µM [rising, partial curve, poor fit] | – |
| CCn1c2ccccc2c2cc(/C=N/NC(=O)c3ccccc3C)ccc21 | 4.61 µM [falling, partial curve] | – |
| O=C(CCCN1C(=O)S/C(=C\c2ccccc2)C1=O)NNC(=O)c1ccccc1O | 0.708 µM [falling, full curve, poor fit] | – |

(continued)

SMILES	AC50 [1]	AC50 [2]
Cc1ccccc1C(=O)NC(=S)Nc1ccccc1C(F)(F)F	6.31 µM [falling, single point]	–
OC1(c2ccccc2)Cc2cccc[n+]2C1c1ccccc1 (configuration not stated)	11.2 µM [rising, partial curve, poor fit]	–
O=c1[nH]c(C2CCCN(S(=O)(=O)c3ccc(F)cc3)C2)nc2c1nnn2Cc1ccc(F)cc1 (configuration not stated)	6.31 µM [rising, partial curve, poor fit]	–
COc1ccc(-c2cc3nc(C)cc(N)n3n2)cc1	7.08 µM [falling, full curve]	–
Cc1nc(SCC(=O)Nc2ccc(F)cc2)c2oc3ccccc3c2n1	2.91 µM [falling, partial curve, poor fit]	–
Nc1cc([N+](=O)[O-])cc2oc(-c3ccccc3)cc12	20 µM [rising, partial curve, poor fit]	–
COc1cc(CNc2ncnc3c2[nH]c2ccc(C)cc23)cc(OC)c1	22.4 µM [falling, single point]	–
O=C1C=C(N2CCOCC2)C2(CCCCC2)O1	3.98 µM [falling, full curve, poor fit]	–
Nc1[nH][nH]c(=O)c1N=Nc1cccc(Cl)c1	35.5 µM [falling, single point]	–
Cc1ccc(Cl)c(NC(=O)COC(=O)c2ccccc2C(=O)c2ccc(Cl)c([N+](=O)[O-])c2)c1Cl	8.2 µM [falling, partial curve]	–
Cc1cc(Cl)n2c(nc3cc(F)c(F)cc32)c1C#N	35.5 µM [falling, single point]	3.55 µM [falling, full curve, poor fit]
Cc1ccc2c(C)c(C(=O)Nc3ccc(S(=O)(=O)Nc4onc(C)c4C)cc3)oc2c1	3.55 µM [falling, partial curve, poor fit]	–
O=C(CNC(=O)c1cccc(F)c1)OCC(=O)N1CCN(C(=O)c2ccco2)CC1	12.6 µM [rising, partial curve, poor fit]	–
NS(=O)(=O)c1ccc(NC(=O)COc2cccc3ccccc23)cc1	10 µM [falling, partial curve]	–
CCN(CC)c1ccc(/C=C2/C(=O)c3ccc(C(=O)O)cc3C2=O)cc1	10.3 µM [falling, partial curve]	–
COc1ccc(C2(CNC(=O)c3ccc(N)cc3)CCCC2)cc1	35.5 µM [rising, partial curve, poor fit]	–
O=C(Nc1nccs1)C1CCCN(S(=O)(=O)c2cccc3cccnc23)C1 (configuration not stated)	0.731 µM [falling, full curve, poor fit]	–
COc1ccc(Nc2nc3ccccc3c(=O)[nH]2)cc1	15.8 µM [rising, partial curve, poor fit]	–
O=C(O)c1ccc(/C=N/Nc2cccc(C(F)(F)F)c2)cc1	1 µM [falling, partial curve]	–
CN1CCN(NC(=O)Nc2ccc(Br)cc2Cl)CC1	1.41 µM [rising, partial curve, poor fit]	–
O=C(CC(c1ccccc1)c1ccccc1)Nc1ccc(C(=O)O)cc1	3.98 µM [rising, single point]	–
